Reference: PMC7142014

By UniProt entry, the sequences of proteins in these tests, tags left out.
UniProt O14978: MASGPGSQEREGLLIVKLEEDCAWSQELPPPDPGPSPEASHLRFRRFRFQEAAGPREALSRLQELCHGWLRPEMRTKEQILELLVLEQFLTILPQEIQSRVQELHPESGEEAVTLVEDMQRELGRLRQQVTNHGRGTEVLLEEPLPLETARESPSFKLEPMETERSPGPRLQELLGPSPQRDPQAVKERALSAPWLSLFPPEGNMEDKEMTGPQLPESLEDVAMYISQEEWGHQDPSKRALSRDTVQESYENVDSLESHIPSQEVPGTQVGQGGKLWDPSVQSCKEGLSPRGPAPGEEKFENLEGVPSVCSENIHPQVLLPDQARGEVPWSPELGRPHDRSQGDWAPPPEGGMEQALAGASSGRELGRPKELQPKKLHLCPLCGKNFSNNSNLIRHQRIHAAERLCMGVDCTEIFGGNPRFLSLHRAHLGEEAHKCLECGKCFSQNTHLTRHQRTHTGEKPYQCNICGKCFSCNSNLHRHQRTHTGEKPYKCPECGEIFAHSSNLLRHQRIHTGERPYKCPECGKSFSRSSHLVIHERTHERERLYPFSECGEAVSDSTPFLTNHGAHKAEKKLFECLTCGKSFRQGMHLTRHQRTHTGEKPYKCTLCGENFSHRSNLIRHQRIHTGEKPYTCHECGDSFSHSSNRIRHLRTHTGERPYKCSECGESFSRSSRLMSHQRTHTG
UniProt Q92769: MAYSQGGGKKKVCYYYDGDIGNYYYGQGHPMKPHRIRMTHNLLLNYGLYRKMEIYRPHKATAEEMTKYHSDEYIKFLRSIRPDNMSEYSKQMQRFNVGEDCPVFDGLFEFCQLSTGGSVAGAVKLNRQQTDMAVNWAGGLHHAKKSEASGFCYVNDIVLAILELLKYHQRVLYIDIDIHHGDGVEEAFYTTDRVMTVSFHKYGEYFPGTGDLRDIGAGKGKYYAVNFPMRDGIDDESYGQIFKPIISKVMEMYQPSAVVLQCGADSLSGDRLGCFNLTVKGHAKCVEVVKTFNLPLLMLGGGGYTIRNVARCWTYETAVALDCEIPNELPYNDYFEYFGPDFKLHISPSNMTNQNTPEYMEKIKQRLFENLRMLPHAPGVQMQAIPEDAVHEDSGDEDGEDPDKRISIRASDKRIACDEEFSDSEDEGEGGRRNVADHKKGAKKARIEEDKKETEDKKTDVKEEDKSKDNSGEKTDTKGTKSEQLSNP
UniProt Q13263: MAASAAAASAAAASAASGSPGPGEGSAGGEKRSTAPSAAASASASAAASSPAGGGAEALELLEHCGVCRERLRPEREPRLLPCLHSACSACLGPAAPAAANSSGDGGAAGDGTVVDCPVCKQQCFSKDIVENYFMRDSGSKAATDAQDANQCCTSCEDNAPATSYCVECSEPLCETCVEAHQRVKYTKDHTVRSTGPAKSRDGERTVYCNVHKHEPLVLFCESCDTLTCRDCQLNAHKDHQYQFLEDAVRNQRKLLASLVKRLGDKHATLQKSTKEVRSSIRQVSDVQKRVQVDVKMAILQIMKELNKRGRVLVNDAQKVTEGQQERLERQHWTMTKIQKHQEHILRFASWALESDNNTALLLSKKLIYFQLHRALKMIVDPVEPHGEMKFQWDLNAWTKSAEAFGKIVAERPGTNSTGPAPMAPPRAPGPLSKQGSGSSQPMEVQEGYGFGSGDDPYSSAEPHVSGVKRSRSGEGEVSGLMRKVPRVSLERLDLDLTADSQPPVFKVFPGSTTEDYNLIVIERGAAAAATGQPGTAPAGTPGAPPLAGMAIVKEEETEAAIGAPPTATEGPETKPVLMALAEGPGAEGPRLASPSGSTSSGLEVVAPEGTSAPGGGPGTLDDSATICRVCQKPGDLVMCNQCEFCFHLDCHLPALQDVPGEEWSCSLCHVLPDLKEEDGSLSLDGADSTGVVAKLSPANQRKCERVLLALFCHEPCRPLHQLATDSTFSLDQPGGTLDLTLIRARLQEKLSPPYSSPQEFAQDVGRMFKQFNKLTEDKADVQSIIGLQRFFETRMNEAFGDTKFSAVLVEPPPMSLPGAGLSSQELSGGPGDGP

Target: ZNF263 (human (endogenous in U251 and U118)) (UniProt O14978)
Assay: affinity purification with mass spectrometry; ZNF263 immunoprecipitation from cell lysate followed by LC-MS/MS; cells not given

| Molecule | binding |
| --- | --- |
| HDAC2 (from UniProt Q92769 1-488) (enzyme) | binds |
| TRIM28 (KAP1) (from UniProt Q13263 1-835) | binds |
| UHRF1 (protein, UniProt Q96T88 1-793) MWIQVRTMDGRQTHTVDSLSRLTKVEELRRKIQELFHVEPGLQRLFYRGKQMEDGHTLFDYEVRLNDTIQLLVRQSLVLPHSTKERDSELSDTDSGCCLGQSESDKSSTHGEAAAETDSRPADEDMWDETELGLYKVNEYVDARDTNMGAWFEAQVVRVTRKAPSRDEPCSSTSRPALEEDVIYHVKYDDYPENGVVQMNSRDVRARARTIIKWQDLEVGQVVMLNYNPDNPKERGFWYDAEISRKRETRTARELYANVVLGDDSLNDCRIIFVDEVFKIERPGEGSPMVDNPMRRKSGPSCKHCKDDVNRLCRVCACHLCGGRQDPDKQLMCDECDMAFHIYCLDPPLSSVPSEDEWYCPECRNDASEVVLAGERLRESKKKAKMASATSSSQRDWGKGMACVGRTKECTIVPSNHYGPIPGIPVGTMWRFRVQVSESGVHRPHVAGIHGRSNDGAYSLVLAGGYEDDVDHGNFFTYTGSGGRDLSGNKRTAEQSCDQKLTNTNRALALNCFAPINDQEGAEAKDWRSGKPVRVVRNVKGGKNSKYAPAEGNRYDGIYKVVKYWPEKGKSGFLVWRYLLRRDDDEPGPWTKEGKDRIKKLGLTMQYPEGYLEALANREREKENSKREEEEQQEGGFASPRTGKGKWKRKSAGGGPSRAGSPRRTSKKTKVEPYSLTAQQSSLIREDKSNAKLWNEVLASLKDRPASGSPFQLFLSKVEETFQCICCQELVFRPITTVCQHNVCKDCLDRSFRAQVFSCPACRYDLGRSYAMQVNQPLQTVLNQLFPGYGNGR | binds |

No constants are given. Whether binding was seen depends on the method and setting. In cells and extracts the contact can be indirect. These calls come from enrichment with a bait or labelling near it, and not all partners need be listed.
